Data as given in PMC10801861, “Elf1 promotes Rad26’s interaction with lesion-arrested Pol II for transcription-coupled repair” (Proceedings of the National Academy of Sciences of the …, 2024).
No constants are given. Whether binding was seen depends on the method and setting.

Target: T1, Rad26 (wild type) (S. cerevisiae, UniProt P40352 1-1085)
T1 construct: Rad26, S. cerevisiae ortholog of human CSB, Swi2/Snf2 family ATPase; also called Rad26(WT); yeast ortholog of CSB; source: E. coli Rosetta 2(DE3), purified (Ni-NTA agarose, Hi-Trap Heparin HP, Superdex 200)
T1 sequence: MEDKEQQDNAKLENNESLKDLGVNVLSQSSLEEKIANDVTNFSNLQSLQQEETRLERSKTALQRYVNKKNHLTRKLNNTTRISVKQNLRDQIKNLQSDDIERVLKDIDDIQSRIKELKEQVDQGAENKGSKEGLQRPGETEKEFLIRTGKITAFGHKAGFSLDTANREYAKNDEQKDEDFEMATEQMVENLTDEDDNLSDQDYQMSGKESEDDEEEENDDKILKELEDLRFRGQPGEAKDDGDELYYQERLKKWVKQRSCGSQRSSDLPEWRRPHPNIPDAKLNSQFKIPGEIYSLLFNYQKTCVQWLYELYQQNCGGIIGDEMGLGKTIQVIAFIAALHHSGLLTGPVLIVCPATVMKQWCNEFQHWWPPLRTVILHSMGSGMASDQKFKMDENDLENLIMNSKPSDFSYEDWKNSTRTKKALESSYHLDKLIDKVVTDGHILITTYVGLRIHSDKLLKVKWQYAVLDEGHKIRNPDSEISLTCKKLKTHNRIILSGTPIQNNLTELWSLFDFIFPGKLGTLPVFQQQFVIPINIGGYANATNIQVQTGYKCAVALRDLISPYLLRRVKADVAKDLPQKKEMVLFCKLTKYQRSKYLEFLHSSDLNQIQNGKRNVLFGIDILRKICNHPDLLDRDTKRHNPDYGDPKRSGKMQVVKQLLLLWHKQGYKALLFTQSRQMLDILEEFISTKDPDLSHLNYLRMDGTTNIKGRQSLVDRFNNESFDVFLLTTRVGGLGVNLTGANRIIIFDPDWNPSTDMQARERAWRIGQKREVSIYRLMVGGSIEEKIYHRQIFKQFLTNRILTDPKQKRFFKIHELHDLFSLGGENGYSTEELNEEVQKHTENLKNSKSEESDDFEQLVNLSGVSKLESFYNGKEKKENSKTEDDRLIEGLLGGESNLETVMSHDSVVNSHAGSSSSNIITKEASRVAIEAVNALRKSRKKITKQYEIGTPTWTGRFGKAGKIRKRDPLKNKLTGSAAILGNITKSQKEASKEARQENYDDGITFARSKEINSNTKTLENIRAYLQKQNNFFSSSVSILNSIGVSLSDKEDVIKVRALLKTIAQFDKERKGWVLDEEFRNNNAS
Experiment: cryo-EM structure; Pol II(CPD)-Rad26-Elf1 (Closed state): Elf1 incubated with the Pol II(CPD)-Rad26 complex; 1 uM Pol II, 2 uM Rad26, 1.1 uM scaffold, 5 uM Elf1; 3.1 A; both purified

- binding: no binding
B1: Elf1 (wild type) (protein, UniProt P36053 1-145)
chain: MGKRKKSTRKPTKRLVQKLDTKFNCLFCNHEKSVSCTLDKKNSIGTLSCKICGQSFQTRINSLSQPVDVYSDWFDAVEEVNSGRGSDTDDGDEGSDSDYESDSEQDAKTQNDGEIDSDEEEVDSDEERIGQVKRGRGALVDSDDE
